{"source": "patent US11376214B2", "about": "“Compositions and methods for treatment of ocular diseases” (KIORA PHARMACEUTICALS, INC., priority 2019, dated 2022)", "format_in_all_cases": "physicochemical", "key": {"[1]": {"assay": "Release of antibiotic from hydrogel or PBS in dialysis chamber", "procedure": "For this assessment, a 0.5 ml sample of hydrogel plus drug or PBS plus drug was placed into a medi-dialysis chamber, and the chamber was placed in a beaker containing 100 ml of PBS. The remaining amount of drug in the dialysis chamber was monitored using UV spectroscopy at various time points. […] The release was monitored as described above. […] Another drug release study was performed, with Moxi-FB and Besi-HCl as the antibiotics, a hydrogel with 7.5 mg/ml CMHA-S, and the antibiotics incorporated at 10 mg/ml. For this study, the samples were placed in a dialysis chamber that was then placed in a tube that contained 10 ml of PBS. The dialysis chamber was transferred to a new tube at each time point, and the dialysate was analyzed by UV absorption (rather than the material inside the dialysis chamber), and the released amount of drug was calculated (rather than the amount remaining). In this experimental set-up, drug release from the hydrogel was slower than from PBS (FIGS. 4A and 4B). Despite the poor water solubility of Besi-HCl compared to Moxi-FB, Besi-HCl was still released from the hydrogel."}, "[2]": {"assay": "Refractive index by refractometer", "conditions": "antibiotic 1 mg/ml incorporated in hydrogel (CMHA-S about 7.5 mg/ml)", "procedure": "(§1) Viscosity, pH, and refractive index (RI) were measured for hydrogels described in Example 2 with and without antibiotic incorporated. […] Viscosity was determined as described in Example 1. RI was measured with a refractometer and pH was measured with a pH meter."}, "[3]": {"assay": "Rheological testing (parallel plate rheometer): viscosity and shear-thinning", "conditions": "antibiotic 1 mg/ml incorporated in hydrogel (CMHA-S about 7.5 mg/ml)", "procedure": "Thiol-modified carboxymethyl HA (CMHA-S) was synthesized as described in Lawyer et al. and Wendling et al., with a thiol modification of 0.1, 0.2, 0.4, or 0.7 μmol thiol/mg. Hydrogels were created by dissolving CMHA-S in phosphate-buffered saline (PBS; pH 7.4). The CMHA-S was disulfide crosslinked under continuous mixing with the addition of sodium hypochlorite. Rheological testing was performed using a parallel plate format rheometer with a 25 mm-diameter stainless steel geometry. Samples (5-6 ml) of hydrogel were placed in a 35 mm Petri dish, and the geometry was lowered to a gap of 5 mm. To determine viscosity and shear-thinning, the shear rate was varied from 0.1 to 10 Hz. A decreasing viscosity as shear rate increases indicates shear-thinning behavior. Table 1 provides the thiol modification of the CMHA-S, concentration of CMHA-S, and resultant viscosity of the hydrogel (at 2.5 Hz) for 4 hydrogel formulations.\nas §1"}, "pH by pH meter": {"assay": "pH by pH meter", "conditions": "antibiotic 1 mg/ml incorporated in hydrogel (CMHA-S about 7.5 mg/ml)", "procedure": "as §1"}}, "note": "Structures can show the parent of a compound that is named as a salt. At least one compound was matched to its structure with a doubt left. Some entries share one result that the patent states for a list of compounds.", "data": [{"smiles": "COc1c(N2C[C@@H]3CCCN[C@@H]3C2)c(F)cc2c(=O)c(C(=O)O)cn(C3CC3)c12", "note": "[Moxi-FB, moxifloxacin]", "values": [{"measurement": "drug release from hydrogel compared with PBS", "setting": "[1]; antibiotic 10 mg/ml in hydrogel with 7.5 mg/ml CMHA-S, dialysis chamber in 10 ml PBS, new tube at each time point, dialysate UV", "value": "slower"}, {"measurement": "Refractive index", "setting": "[2]", "value": 1.3356}, {"measurement": "Viscosity at 2.5 Hz", "setting": "[3]", "value": 1.4, "unit": "Pa · s"}, {"measurement": "pH", "setting": "pH by pH meter", "value": 7.4}]}, {"smiles": "COc1c(N2C[C@@H]3CCCN[C@@H]3C2)c(F)cc2c(=O)c(C(=O)O)cn(C3CC3)c12", "note": "[Moxi-HCl, moxifloxacin hydrochloride]", "values": [{"measurement": "time within which dialysis (drug release) was completed", "setting": "[1]; drug 1 mg/ml in hydrogel (CMHA-S about 7.5 mg/ml), 0.5 ml in medi-dialysis chamber (MWCO 50 kDa) in 100 ml PBS, UV", "value": "4 to 8", "unit": "h"}]}]}
